# Drug screen on melanoma cell lines: cell count

Compounds and concentrations:
BMS-536924: Cc1cc(N2CCOCC2)cc2[nH]c(-c3c(NC[C@@H](O)c4cccc(Cl)c4)cc[nH]c3=O)nc12 at 0.2 µM
XAV939: Oc1nc(-c2ccc(C(F)(F)F)cc2)nc2c1CSCC2 at 2 µM
bortezomib: CC(C)C[C@H](NC(=O)[C@H](Cc1ccccc1)NC(=O)c1cnccn1)B(O)O at 0.001 µM
veliparib: C[C@]1(c2nc3c(C(N)=O)cccc3[nH]2)CCCN1 at 1.4 µM
GSK0660: COC(=O)c1sccc1S(=O)(=O)Nc1ccc(Nc2ccccc2)cc1OC at 1 µM
lenalidomide: Nc1cccc2c1CN(C1CCC(=O)NC1=O)C2=O (configuration not stated) at 1 µM
erlotinib: C#Cc1cccc(Nc2ncnc3cc(OCCOC)c(OCCOC)cc23)c1 at 0.8 µM
CX-4945: O=C(O)c1ccc2c(c1)nc(Nc1cccc(Cl)c1)c1ccncc12 at 0.4 µM
CHIR-265: Cn1c(Nc2ccc(C(F)(F)F)cc2)nc2cc(Oc3ccnc(-c4ncc(C(F)(F)F)[nH]4)c3)ccc21 at 0.08 µM
enzastaurin: Cn1cc(C2=C(c3cn(C4CCN(Cc5ccccn5)CC4)c4ccccc34)C(=O)NC2=O)c2ccccc21 at 0.8 µM
GW0742: Cc1cc(SCc2sc(-c3ccc(C(F)(F)F)c(F)c3)nc2C)ccc1OCC(=O)O at 2 µM
RKI-983: C[C@@H](N)c1ccc(C(=O)Nc2ccnc3[nH]ccc23)cc1 at 0.4 µM
GW2580: COc1ccc(COc2ccc(Cc3cnc(N)nc3N)cc2OC)cc1 at 1 µM

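The test systems are human melanoma cell lines, treated with two drugs together for 72 h and then stained and imaged. Values are the number of DAPI-stained nuclei as a percentage of the DMSO control: 100 is no effect, lower means fewer cells. Concentrations were fixed for each drug; these are the lower of two levels, a fifth of the higher. No replicate spread is given; individual values may be noisy.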 An unselected part of the screen is shown. A dash means that no value is listed here.

| # | Combination | COLO 792 | IST-MEL1 | LOX IMVI | IPC-298 | A375 | COLO 800 | LB2518-MEL | A101D | C32 | 501mel | G-361 |
|---|---|---|---|---|---|---|---|---|---|---|---|---|
| 1 | GW0742 and erlotinib | 87.0 | 97.5 | 105 | 103 | 106 | 99.9 | - | 96.4 | 107 | - | 98.9 |
| 2 | CHIR-265 and RKI-983 | 51.8 | 100 | 47.0 | 77.4 | 70.6 | 154 | 83.2 | 65.6 | 74.9 | - | 66.5 |
| 3 | lenalidomide and GSK0660 | 99.7 | 99.0 | 129 | 100 | 130 | 77.1 | 89.5 | 119 | 110 | 95.7 | 92.7 |
| 4 | CHIR-265 and GW2580 | 45.6 | 81.5 | 74.1 | 60.8 | 51.7 | 91.1 | 68.6 | 69.2 | 82.3 | 70.6 | 59.7 |
| 5 | GW0742 and XAV939 | 79.7 | 100 | 97.3 | 93.7 | 97.9 | 112 | 86.9 | 91.2 | 92.2 | 115 | 88.6 |
| 6 | veliparib and CX-4945 | 96.5 | 100 | 49.9 | 82.6 | 71.2 | 79.0 | 99.5 | 96.8 | 92.9 | - | 79.1 |
| 7 | CX-4945 and GW0742 | 79.8 | 102 | 82.5 | 98.7 | - | 69.1 | 108 | 120 | 104 | 123 | 108 |
| 8 | BMS-536924 and XAV939 | 76.1 | 110 | 101 | 101 | 113 | 58.6 | - | 120 | 87.7 | - | 86.0 |
| 9 | enzastaurin and CHIR-265 | 44.0 | 105 | 69.3 | 73.4 | 72.5 | 128 | 58.0 | 68.2 | 101 | - | 93.2 |
| 10 | GW2580 and bortezomib | 90.6 | 97.0 | 61.3 | 91.1 | - | 75.2 | 49.5 | 44.9 | 78.7 | 48.6 | 40.5 |
| 11 | lenalidomide and XAV939 | 86.8 | 96.2 | 52.1 | 97.9 | 105 | 47.0 | 112 | 104 | 99.6 | 120 | 102 |
| 12 | GW2580 and erlotinib | 94.8 | 96.8 | 105 | 91.2 | 106 | 86.1 | 96.7 | 94.3 | 114 | 103 | 107 |
| 13 | BMS-536924 and GW2580 | 106 | 102 | 84.7 | 103 | 79.1 | 86.0 | 95.8 | 117 | 101 | 107 | 88.4 |
| 14 | bortezomib and CX-4945 | 96.2 | 91.2 | 67.1 | 63.0 | 95.5 | 79.8 | 33.8 | 21.7 | 93.2 | - | 2.8 |
| 15 | veliparib and GSK0660 | 93.0 | 90.1 | 106 | 99.6 | 80.8 | 92.9 | 87.4 | 110 | 109 | 121 | 82.0 |
| 16 | erlotinib and XAV939 | 65.2 | 94.5 | 98.3 | 93.2 | 92.4 | 153 | 99.4 | 84.7 | 101 | 78.8 | 84.1 |
| 17 | veliparib and GW0742 | 89.9 | 96.0 | 76.7 | 107 | 94.8 | 84.7 | 103 | 102 | 84.9 | 92.1 | 89.0 |
| 18 | GSK0660 and BMS-536924 | 87.2 | 94.3 | 117 | 89.6 | 82.4 | 72.0 | 111 | 105 | 91.7 | 96.3 | 102 |
| 19 | CX-4945 and RKI-983 | 90.1 | 96.0 | 70.6 | 94.5 | 102 | 195 | 138 | 88.4 | 93.5 | - | 84.7 |
| 20 | CHIR-265 and XAV939 | 30.7 | 85.8 | 68.5 | 67.6 | 63.5 | 60.6 | 62.8 | 56.2 | 88.7 | 62.2 | 72.6 |
| 21 | enzastaurin and CX-4945 | 104 | 114 | 107 | 106 | 102 | 102 | 106 | 100 | 89.9 | - | 97.1 |
| 22 | enzastaurin and bortezomib | 91.8 | 109 | 110 | 91.7 | 111 | 93.7 | 54.0 | 35.9 | 130 | - | 22.5 |
| 23 | bortezomib and BMS-536924 | 75.7 | 92.7 | 56.1 | 72.4 | 70.5 | 85.9 | 45.5 | 40.8 | 90.9 | - | 9.5 |
| 24 | lenalidomide and enzastaurin | 88.4 | 96.0 | 58.2 | 103 | 80.8 | 69.7 | 99.3 | 92.4 | 101 | - | 103 |
| 25 | GW2580 and lenalidomide | 92.4 | 96.9 | 104 | 94.8 | 99.0 | 85.6 | 90.8 | 102 | 112 | 67.7 | 80.5 |

Source: doi:10.1371/journal.pone.0140310, primary screening data, rounded.